At least one peptide structure holds a part that was inferred or is arguable (an end, a ring closure or a residue). At least one structure is not confirmed: it was looked up by name or label, or the drawing left a doubt. Bridge positions count the residues as written; N and C are the ends. Peptide text beside a SMILES is read from it. I, II: the chains in the order shown.
How the values were obtained:
LPS = test: Bodipy TR Cadavarine (BC) displacement assay; assay type: binding; conditions: 5 mM HEPES buffer pH 7.0, FIG. 10(A)
Gram-negative bacteria = test: Effect of Mg^2+ on MIC; assay type: cell-based; conditions: MgCl2 varied in MHB; FIG. 10(D)
Lipid A = test: Bodipy TR Cadavarine (BC) displacement assay; assay type: binding; conditions: 5 mM HEPES buffer pH 7.0, FIG. 10(B)

CC(C)[C@H](NC(=O)[C@H](CCCCN)NC(=O)[C@H](CCCNC(=N)N)NC(=O)CNC(=O)[C@@H](N)CCCNC(=N)N)C(=O)N[C@H](C(=O)N[C@@H](CCCNC(=N)N)C(=O)N[C@@H](CCCNC(=N)N)C(=O)NCCCC[C@H](NC(=O)[C@H](CCCNC(=N)N)NC(=O)[C@H](CCCNC(=N)N)NC(=O)[C@@H](NC(=O)[C@@H](NC(=O)[C@H](CCCCN)NC(=O)[C@H](CCCNC(=N)N)NC(=O)CNC(=O)[C@@H](N)CCCNC(=N)N)C(C)C)C(C)C)C(=O)N[C@@H](CCCCN)C(=O)O)C(C)C [V2 dimer, (SEQ ID NO: 44)2KK] (I: H-RGRKVVRRKK-OH / II: H-RGRKVVRR; amide I:9-II:C)
binding to LPS, times more strongly than B2088—99 (LPS): 2 times
dependency of MIC on Mg^2+ concentration (Gram-negative bacteria): strong dependency
binding to Lipid A, times more strongly than B2088—99 (Lipid A): > 10 times

Source: patent US9220264B2, “Multimeric forms of antimicrobial peptides” (Singapore Health Services Pte Ltd., priority 2008, dated 2015)
